From US20170173002A1, “Compositions and Methods for Treating an Infection” (CMPD LICENSING, LLC, priority 2015, published 2017)
For at least one compound, name, drawing or mass did not settle the structure.

What was measured:
Assay in all cases: Expected efficacy of antibiotic agents
Enterobacter cloacae = conditions: expected efficacy against Enterobacter cloacae
Mycoplasma pneumoniae = conditions: expected efficacy against Mycoplasma pneumoniae
Morganella morganii = conditions: expected efficacy against Morganella morganii
Providencia stuartii = conditions: expected efficacy against Providencia stuartii
Providencia rettgeri = conditions: expected efficacy against Providencia rettgeri
Klebsiella pneumoniae = conditions: expected efficacy against Klebsiella pneumoniae
Shigella dysenteriae = conditions: expected efficacy against Shigella dysenteriae
Bacteroides fragilis = conditions: expected efficacy against Bacteroides fragilis
Haemophilus influenzae = conditions: expected efficacy against Haemophilus influenzae
[1] = test system: Acinetobacter calcoaceticus; conditions: expected efficacy against Acinetobacter calcoaceticus
Citrobacter diversus = conditions: expected efficacy against Citrobacter diversus
Chlamydia trachomatis = conditions: expected efficacy against Chlamydia trachomatis
Serratia marcescens = conditions: expected efficacy against Serratia marcescens
Proteus mirabilis = conditions: expected efficacy against Proteus mirabilis
Bartonella bacilliformis = conditions: expected efficacy against Bartonella bacilliformis
Enterococcus faecalis = conditions: expected efficacy against Enterococcus faecalis
[2] = test system: Corynebacterium urealyticum; conditions: expected efficacy against Corynebacterium urealyticum
[3] = test system: Viridans group streptococci; conditions: expected efficacy against Viridans group streptococci
Klebsiella oxytoca = conditions: expected efficacy against Klebsiella oxytoca
Citrobacter freundii = conditions: expected efficacy against Citrobacter freundii
[4] = test system: Klebsiella (Calymmatobacterium) granulomatis; conditions: expected efficacy against Klebsiella (Calymmatobacterium) granulomatis
Streptococcus pneumoniae = conditions: expected efficacy against Streptococcus pneumoniae
Vibrio cholerae = conditions: expected efficacy against Vibrio cholerae
Chlamydia pneumoniae = conditions: expected efficacy against Chlamydia pneumoniae
Moraxella catarrhalis = conditions: expected efficacy against Moraxella catarrhalis
Acinetobacter lwoffii = conditions: expected efficacy against Acinetobacter lwoffii
Streptococcus agalactiae = conditions: expected efficacy against Streptococcus agalactiae
[5] = test system: Haemophilus parainfluenzae; conditions: expected efficacy against Haemophilus parainfluenzae
Pseudomonas aeruginosa = conditions: expected efficacy against Pseudomonas aeruginosa
Escherichia coli = conditions: expected efficacy against Escherichia coli
Enterococcus faecium = conditions: expected efficacy against Enterococcus faecium
Haemophilus ducreyi = conditions: expected efficacy against Haemophilus ducreyi
Proteus vulgaris = conditions: expected efficacy against Proteus vulgaris
Streptococcus pyogenes = conditions: expected efficacy against Streptococcus pyogenes
Enterobacter aerogenes = conditions: expected efficacy against Enterobacter aerogenes
Campylobacter jejuni = conditions: expected efficacy against Campylobacter jejuni
Salmonella typhi = conditions: expected efficacy against Salmonella typhi
[6] = test system: Methicillin resistant staph aureus (MRSA); conditions: expected efficacy against Methicillin resistant staph aureus (MRSA)
Peptostreptococcus = conditions: expected efficacy against Peptostreptococcus
Acinetobacter baumannii = conditions: expected efficacy against Acinetobacter baumannii
Enterobacter sakazakii = conditions: expected efficacy against Enterobacter sakazakii
[7] = test system: Staphylococcus epidermidis; conditions: expected efficacy against Staphylococcus epidermidis
[8] = test system: Staphylococcus aureus (MSSA); conditions: expected efficacy against Staphylococcus aureus (MSSA)
Neisseria gonorrhoeae = conditions: expected efficacy against Neisseria gonorrhoeae
Neisseria meningitidis = conditions: expected efficacy against Neisseria meningitidis
Pseudomonas fluorescens = conditions: expected efficacy against Pseudomonas fluorescens
Corynebacterium jeikeium = conditions: expected efficacy against Corynebacterium jeikeium
Bordetella pertussis = conditions: expected efficacy against Bordetella pertussis

## C[C@H]1c2cccc(O)c2C(=O)C2=C(O)[C@]3(O)C(=O)C(C(N)=O)=C(O)[C@@H](N(C)C)[C@@H]3[C@@H](O)[C@@H]21 [Doxycycline, doxycycline]
Enterobacter cloacae
  Efficacy: ±
Mycoplasma pneumoniae
  Efficacy: ±
Morganella morganii
  Efficacy: no
Providencia stuartii
  Efficacy: no
Providencia rettgeri
  Efficacy: no
Klebsiella pneumoniae
  Efficacy: ±
Shigella dysenteriae
  Efficacy: ±
Bacteroides fragilis
  Efficacy: ±
Haemophilus influenzae
  Efficacy: yes
[1]
  Efficacy: ±
Citrobacter diversus
  Efficacy: no
Chlamydia trachomatis
  Efficacy: yes
Serratia marcescens
  Efficacy: no
Proteus mirabilis
  Efficacy: no
Bartonella bacilliformis
  Efficacy: yes
Enterococcus faecalis
  Efficacy: no
[2]
  Efficacy: ±
[3]
  Efficacy: ±
Klebsiella oxytoca
  Efficacy: ±
Citrobacter freundii
  Efficacy: no
[4]
  Efficacy: yes
Streptococcus pneumoniae
  Efficacy: yes
Vibrio cholerae
  Efficacy: yes
Chlamydia pneumoniae
  Efficacy: yes
Moraxella catarrhalis
  Efficacy: yes
Acinetobacter lwoffii
  Efficacy: no
Streptococcus agalactiae
  Efficacy: ±
[5]
  Efficacy: yes
Pseudomonas aeruginosa
  Efficacy: no
Escherichia coli
  Efficacy: ±
Enterococcus faecium
  Efficacy: no
Haemophilus ducreyi
  Efficacy: yes
Proteus vulgaris
  Efficacy: no
Streptococcus pyogenes
  Efficacy: ±
Enterobacter aerogenes
  Efficacy: ±
Campylobacter jejuni
  Efficacy: yes
Salmonella typhi
  Efficacy: ±
[6]
  Efficacy: ±
Peptostreptococcus
  Efficacy: ±
Acinetobacter baumannii
  Efficacy: no
Enterobacter sakazakii
  Efficacy: ±
[7]
  Efficacy: yes
[8]
  Efficacy: ±
Neisseria gonorrhoeae
  Efficacy: ±
Neisseria meningitidis
  Efficacy: yes

## CCC[C@@H]1C[C@@H](C(=O)N[C@@H]([C@H]2O[C@H](SC)[C@H](O)[C@@H](O)[C@H]2O)[C@H](C)Cl)N(C)C1 [Clindamycin, clindamycin]
Bacteroides fragilis
  Efficacy: yes
[3]
  Efficacy: yes
Streptococcus pneumoniae
  Efficacy: yes
Chlamydia pneumoniae
  Efficacy: ±
Streptococcus agalactiae
  Efficacy: yes
Streptococcus pyogenes
  Efficacy: yes
Peptostreptococcus
  Efficacy: yes
[7]
  Efficacy: yes
[8]
  Efficacy: yes

## C[C@H]1COc2c(N3CCN(C)CC3)c(F)cc3c(=O)c(C(=O)O)cn1c23 [Levofloxacin, levofloxacin]
Enterobacter cloacae
  Efficacy: yes
Mycoplasma pneumoniae
  Efficacy: yes
Pseudomonas fluorescens
  Efficacy: yes
Morganella morganii
  Efficacy: yes
Providencia stuartii
  Efficacy: yes
Providencia rettgeri
  Efficacy: yes
Klebsiella pneumoniae
  Efficacy: yes
Shigella dysenteriae
  Efficacy: yes
Corynebacterium jeikeium
  Efficacy: no
Bacteroides fragilis
  Efficacy: no
Haemophilus influenzae
  Efficacy: yes
[1]
  Efficacy: ±
Citrobacter diversus
  Efficacy: yes
Serratia marcescens
  Efficacy: yes
Proteus mirabilis
  Efficacy: yes
Bartonella bacilliformis
  Efficacy: yes
Enterococcus faecalis
  Efficacy: yes
[2]
  Efficacy: ±
[3]
  Efficacy: yes
Klebsiella oxytoca
  Efficacy: yes
Citrobacter freundii
  Efficacy: yes
Streptococcus pneumoniae
  Efficacy: yes
Vibrio cholerae
  Efficacy: yes
Chlamydia pneumoniae
  Efficacy: yes
Moraxella catarrhalis
  Efficacy: yes
Acinetobacter lwoffii
  Efficacy: ±
Streptococcus agalactiae
  Efficacy: yes
[5]
  Efficacy: yes
Pseudomonas aeruginosa
  Efficacy: yes
Escherichia coli
  Efficacy: yes
Enterococcus faecium
  Efficacy: no
Proteus vulgaris
  Efficacy: yes
Streptococcus pyogenes
  Efficacy: yes
Enterobacter aerogenes
  Efficacy: yes
Campylobacter jejuni
  Efficacy: yes
Salmonella typhi
  Efficacy: yes
[6]
  Efficacy: no
Peptostreptococcus
  Efficacy: ±
Acinetobacter baumannii
  Efficacy: ±
Bordetella pertussis
  Efficacy: ±
Enterobacter sakazakii
  Efficacy: yes
[7]
  Efficacy: yes
[8]
  Efficacy: yes
Neisseria gonorrhoeae
  Efficacy: yes
Neisseria meningitidis
  Efficacy: yes
